Measured values: paper PMC8128024
Results are given in words; binding and its absence hold for the method and conditions named. In cells and extracts the contact can be indirect. Some results given as binding are weak or reduced against the parent protein; the word gives no strength.

By UniProt entry, the sequences of proteins in these tests, tags left out.
UniProt Q9Z1E3: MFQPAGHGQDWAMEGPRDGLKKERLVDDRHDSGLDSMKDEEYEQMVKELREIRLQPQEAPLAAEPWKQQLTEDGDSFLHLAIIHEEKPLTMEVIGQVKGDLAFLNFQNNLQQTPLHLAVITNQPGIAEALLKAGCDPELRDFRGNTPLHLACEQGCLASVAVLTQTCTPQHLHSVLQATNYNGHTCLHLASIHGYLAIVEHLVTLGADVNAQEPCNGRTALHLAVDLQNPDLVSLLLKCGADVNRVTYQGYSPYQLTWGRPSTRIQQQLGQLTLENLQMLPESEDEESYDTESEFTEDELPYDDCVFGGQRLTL
UniProt Q91YI4: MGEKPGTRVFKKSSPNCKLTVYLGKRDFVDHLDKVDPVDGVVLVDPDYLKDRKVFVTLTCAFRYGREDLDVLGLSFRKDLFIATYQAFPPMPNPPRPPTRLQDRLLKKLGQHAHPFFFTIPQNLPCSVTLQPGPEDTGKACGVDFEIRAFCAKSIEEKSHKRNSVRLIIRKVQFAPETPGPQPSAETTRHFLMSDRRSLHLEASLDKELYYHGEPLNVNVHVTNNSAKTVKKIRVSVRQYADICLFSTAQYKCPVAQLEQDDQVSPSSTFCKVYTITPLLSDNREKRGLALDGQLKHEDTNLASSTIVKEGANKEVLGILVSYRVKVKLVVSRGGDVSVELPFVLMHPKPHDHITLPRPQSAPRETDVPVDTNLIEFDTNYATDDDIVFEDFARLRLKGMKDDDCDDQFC

Columns and labels:
[1] = target: IкBα (mouse (endogenous in RAW264.7)) (UniProt Q9Z1E3); experiment: co-IP; Pierce Classic IP Kit, RAW264.7 cell lysates, endogenous proteins; cells treated with sodium butyrate (4 μmol/mL) or normal saline for 30 min (GPR43 and β-arrestin-2), or with sodium butyrate followed by LPS (1 μg/mL) half an hour later, lysates after 6 h (β-arrestin-2 and IкBα); normal IgG as negative control; Western blot; which antibody precipitated is not stated
[2] = target: T1, G-protein-coupled receptor 43 (mouse (endogenous in RAW264.7)) (UniProt Q8VCK6); experiment: as above
T1 sequence: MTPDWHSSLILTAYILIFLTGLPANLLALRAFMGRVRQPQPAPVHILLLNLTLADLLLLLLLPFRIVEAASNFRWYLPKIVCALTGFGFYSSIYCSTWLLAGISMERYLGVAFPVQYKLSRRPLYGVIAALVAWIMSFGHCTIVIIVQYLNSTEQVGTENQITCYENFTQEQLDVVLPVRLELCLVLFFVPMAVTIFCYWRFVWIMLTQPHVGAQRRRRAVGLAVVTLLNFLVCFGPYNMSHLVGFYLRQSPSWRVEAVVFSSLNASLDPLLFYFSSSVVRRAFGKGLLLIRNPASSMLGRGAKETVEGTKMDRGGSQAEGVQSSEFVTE

binding [1]: binds | binding [2]: binds
Substance: β-arrestin-2 (from UniProt Q91YI4 1-410)
